Data on one substance can be found in article PMC2877798.

By UniProt entry, the sequences of proteins in these tests, tags left out.
UniProt P10484: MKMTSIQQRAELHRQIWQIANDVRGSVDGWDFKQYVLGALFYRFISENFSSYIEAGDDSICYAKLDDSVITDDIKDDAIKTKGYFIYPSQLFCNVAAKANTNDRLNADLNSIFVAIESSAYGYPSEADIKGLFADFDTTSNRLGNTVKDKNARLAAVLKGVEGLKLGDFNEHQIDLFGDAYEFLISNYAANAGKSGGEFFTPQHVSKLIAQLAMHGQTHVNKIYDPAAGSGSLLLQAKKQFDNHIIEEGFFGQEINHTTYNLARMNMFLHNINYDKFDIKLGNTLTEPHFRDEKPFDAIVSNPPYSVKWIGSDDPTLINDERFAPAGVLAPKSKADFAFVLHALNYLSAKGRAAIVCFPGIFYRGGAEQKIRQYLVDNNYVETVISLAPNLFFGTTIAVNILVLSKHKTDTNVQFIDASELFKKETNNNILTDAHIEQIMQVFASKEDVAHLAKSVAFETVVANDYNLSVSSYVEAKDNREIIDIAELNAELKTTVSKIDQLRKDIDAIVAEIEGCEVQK

The assay has as its target SNT, residues 1–215 of the HsdS (specificity) subunit of EcoR124I (UniProt P10485). Nature of the assay: small-angle neutron scattering (SANS); reconstituted M.EcoR124INT, fully hydrogenated in 100% D2O, or with deuterated SNT and hydrogenated M in 40% and 100% D2O (contrast variation); buffer A; ab initio models with DAMMIN, P2 symmetry imposed; both purified.

These are yes or no findings as the source states them, for the method shown. A result given as binding can be weak or reduced; the word gives no strength.

In the case of “M subunit (HsdM) of EcoR124I (from UniProt P10484 1-520)”, the binding result is “binds”.
